Source: the supplement of paper PMC12595434, “Development of retinoid nuclear receptor pathway antagonists through targeting aldehyde dehydrogenase 1A3” (iScience, 2025)
Some of the results follow. Single values of this set are uncertain.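 Many melting curves are irregular; where none melted, Tm was taken as 64 °C.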

Amino acid sequences for entries named in this document (tags omitted). A change or cut given only in a name is not applied to a line headed by its entry.
UniProt O60671: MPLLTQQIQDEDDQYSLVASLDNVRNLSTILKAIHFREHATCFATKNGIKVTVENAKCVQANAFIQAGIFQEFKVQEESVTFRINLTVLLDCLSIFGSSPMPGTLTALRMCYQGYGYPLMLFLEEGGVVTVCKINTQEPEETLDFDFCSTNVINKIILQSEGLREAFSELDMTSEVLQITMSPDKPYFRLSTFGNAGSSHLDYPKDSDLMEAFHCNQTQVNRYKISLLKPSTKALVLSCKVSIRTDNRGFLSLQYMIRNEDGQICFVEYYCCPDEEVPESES
UniProt O60637: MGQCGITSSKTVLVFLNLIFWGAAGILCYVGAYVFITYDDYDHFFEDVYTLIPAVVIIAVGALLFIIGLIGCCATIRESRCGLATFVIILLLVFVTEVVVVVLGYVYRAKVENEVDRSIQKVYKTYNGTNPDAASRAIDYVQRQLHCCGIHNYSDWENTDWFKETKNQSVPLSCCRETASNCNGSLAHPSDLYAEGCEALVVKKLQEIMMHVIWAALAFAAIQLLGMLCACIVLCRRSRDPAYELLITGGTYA
UniProt O75695: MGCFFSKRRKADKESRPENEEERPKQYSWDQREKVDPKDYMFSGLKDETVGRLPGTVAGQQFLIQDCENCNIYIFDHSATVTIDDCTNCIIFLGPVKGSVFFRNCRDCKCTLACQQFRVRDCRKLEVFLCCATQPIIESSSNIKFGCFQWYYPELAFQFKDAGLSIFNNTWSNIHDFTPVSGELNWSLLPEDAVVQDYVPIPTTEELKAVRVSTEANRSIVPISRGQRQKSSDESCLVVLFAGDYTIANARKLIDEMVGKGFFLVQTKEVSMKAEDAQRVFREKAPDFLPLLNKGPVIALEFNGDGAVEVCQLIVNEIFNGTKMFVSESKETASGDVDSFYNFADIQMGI
UniProt O60524: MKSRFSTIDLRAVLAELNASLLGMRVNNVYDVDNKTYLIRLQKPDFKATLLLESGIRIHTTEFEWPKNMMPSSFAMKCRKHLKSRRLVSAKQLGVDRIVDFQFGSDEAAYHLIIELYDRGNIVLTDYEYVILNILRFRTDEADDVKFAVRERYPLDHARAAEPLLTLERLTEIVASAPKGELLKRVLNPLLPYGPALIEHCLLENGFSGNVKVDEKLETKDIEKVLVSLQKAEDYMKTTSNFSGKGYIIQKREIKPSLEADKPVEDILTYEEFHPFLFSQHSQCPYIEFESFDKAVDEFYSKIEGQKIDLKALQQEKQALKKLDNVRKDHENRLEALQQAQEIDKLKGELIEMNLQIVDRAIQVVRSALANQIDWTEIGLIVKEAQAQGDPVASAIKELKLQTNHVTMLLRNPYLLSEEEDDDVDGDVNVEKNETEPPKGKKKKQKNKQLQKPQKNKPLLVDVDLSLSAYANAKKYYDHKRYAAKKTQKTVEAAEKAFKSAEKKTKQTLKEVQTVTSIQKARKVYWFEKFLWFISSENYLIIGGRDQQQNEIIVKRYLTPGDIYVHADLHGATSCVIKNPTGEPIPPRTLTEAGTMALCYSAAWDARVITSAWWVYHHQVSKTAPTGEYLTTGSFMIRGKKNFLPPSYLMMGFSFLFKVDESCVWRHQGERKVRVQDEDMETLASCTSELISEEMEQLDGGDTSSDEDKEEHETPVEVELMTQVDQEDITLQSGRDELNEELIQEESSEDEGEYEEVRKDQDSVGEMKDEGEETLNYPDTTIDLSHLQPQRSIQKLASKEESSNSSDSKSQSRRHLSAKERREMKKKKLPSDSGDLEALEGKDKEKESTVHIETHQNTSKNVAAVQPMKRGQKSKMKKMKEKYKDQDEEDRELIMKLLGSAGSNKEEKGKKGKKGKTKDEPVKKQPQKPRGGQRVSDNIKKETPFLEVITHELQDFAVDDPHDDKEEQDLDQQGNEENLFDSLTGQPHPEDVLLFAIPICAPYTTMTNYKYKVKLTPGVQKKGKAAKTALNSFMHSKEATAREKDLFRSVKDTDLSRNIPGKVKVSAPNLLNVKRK
UniProt O60271: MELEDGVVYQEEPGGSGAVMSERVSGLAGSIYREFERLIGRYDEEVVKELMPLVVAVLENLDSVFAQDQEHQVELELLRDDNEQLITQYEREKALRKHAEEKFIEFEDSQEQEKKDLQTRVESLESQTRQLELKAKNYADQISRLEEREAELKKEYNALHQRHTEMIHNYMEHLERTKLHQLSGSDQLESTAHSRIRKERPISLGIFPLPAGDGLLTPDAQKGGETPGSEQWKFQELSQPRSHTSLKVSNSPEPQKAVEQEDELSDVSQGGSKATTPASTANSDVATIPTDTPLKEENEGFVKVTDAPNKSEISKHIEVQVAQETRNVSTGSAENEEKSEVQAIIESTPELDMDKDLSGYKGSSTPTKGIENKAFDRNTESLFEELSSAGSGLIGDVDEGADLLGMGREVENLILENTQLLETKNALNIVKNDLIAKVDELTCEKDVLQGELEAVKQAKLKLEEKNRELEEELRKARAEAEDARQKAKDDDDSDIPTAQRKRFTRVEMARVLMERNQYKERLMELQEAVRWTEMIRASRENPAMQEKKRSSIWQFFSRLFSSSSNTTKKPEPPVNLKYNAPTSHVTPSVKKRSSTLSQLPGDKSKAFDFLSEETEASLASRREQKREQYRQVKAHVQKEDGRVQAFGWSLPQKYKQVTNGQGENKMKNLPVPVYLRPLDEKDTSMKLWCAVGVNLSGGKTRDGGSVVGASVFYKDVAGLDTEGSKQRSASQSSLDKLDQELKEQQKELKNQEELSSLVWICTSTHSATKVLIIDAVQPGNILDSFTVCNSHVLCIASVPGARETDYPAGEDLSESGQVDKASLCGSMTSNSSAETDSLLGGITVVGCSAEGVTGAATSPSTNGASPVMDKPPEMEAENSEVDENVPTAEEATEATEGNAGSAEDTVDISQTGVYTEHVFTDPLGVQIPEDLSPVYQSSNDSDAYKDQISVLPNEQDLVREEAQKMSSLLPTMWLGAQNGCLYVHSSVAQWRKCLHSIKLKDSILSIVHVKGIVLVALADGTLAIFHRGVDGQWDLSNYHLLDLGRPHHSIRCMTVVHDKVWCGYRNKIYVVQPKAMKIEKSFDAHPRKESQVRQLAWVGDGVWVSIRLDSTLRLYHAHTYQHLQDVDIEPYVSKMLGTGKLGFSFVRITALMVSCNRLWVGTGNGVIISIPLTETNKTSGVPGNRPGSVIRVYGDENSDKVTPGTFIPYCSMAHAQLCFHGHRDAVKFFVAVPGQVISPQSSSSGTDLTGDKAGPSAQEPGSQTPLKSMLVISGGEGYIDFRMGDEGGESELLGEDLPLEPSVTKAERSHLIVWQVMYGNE
UniProt O43715: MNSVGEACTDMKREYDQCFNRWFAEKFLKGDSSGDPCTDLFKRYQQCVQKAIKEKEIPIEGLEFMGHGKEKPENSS
UniProt O60879: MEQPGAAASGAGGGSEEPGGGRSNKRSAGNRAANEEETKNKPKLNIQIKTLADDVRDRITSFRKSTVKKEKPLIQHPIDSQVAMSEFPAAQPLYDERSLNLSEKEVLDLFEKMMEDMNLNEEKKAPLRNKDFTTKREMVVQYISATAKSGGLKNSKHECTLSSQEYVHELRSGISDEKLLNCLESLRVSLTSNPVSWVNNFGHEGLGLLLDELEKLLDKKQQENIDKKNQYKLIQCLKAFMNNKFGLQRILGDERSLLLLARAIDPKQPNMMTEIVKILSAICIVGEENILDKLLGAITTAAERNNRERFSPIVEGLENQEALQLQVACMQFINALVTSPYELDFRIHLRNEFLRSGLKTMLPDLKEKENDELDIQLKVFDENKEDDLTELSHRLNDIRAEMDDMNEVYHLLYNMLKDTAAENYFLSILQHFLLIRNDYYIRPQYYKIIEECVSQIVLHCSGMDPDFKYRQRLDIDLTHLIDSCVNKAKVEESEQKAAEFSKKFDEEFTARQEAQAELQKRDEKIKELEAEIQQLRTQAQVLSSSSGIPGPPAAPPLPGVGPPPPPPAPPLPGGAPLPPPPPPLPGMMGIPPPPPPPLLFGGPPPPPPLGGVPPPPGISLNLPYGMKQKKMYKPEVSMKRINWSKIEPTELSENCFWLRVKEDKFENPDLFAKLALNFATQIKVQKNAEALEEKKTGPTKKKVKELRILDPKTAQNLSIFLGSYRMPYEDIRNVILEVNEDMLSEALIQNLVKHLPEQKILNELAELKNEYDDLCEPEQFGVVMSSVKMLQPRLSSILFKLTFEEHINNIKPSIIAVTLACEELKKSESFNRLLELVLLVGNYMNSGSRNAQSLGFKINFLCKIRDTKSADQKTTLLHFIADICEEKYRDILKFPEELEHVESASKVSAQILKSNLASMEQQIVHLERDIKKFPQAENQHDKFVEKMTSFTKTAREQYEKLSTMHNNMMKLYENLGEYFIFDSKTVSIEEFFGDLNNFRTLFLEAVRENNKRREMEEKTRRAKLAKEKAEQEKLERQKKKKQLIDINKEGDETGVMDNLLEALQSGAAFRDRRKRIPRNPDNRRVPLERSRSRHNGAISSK
UniProt O43660: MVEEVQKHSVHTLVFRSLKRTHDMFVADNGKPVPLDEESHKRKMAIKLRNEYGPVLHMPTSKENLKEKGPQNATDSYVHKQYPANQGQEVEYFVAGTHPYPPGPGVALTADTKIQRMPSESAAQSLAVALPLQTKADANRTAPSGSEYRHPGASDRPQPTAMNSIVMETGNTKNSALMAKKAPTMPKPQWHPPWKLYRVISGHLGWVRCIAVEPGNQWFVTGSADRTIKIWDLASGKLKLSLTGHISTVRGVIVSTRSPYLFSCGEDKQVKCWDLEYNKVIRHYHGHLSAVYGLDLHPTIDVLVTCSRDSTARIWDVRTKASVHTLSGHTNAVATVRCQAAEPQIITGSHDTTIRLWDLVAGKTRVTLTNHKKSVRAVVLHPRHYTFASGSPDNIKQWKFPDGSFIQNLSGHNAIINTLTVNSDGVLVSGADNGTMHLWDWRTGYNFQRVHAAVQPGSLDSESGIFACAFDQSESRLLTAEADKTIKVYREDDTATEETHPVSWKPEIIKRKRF
UniProt O75038: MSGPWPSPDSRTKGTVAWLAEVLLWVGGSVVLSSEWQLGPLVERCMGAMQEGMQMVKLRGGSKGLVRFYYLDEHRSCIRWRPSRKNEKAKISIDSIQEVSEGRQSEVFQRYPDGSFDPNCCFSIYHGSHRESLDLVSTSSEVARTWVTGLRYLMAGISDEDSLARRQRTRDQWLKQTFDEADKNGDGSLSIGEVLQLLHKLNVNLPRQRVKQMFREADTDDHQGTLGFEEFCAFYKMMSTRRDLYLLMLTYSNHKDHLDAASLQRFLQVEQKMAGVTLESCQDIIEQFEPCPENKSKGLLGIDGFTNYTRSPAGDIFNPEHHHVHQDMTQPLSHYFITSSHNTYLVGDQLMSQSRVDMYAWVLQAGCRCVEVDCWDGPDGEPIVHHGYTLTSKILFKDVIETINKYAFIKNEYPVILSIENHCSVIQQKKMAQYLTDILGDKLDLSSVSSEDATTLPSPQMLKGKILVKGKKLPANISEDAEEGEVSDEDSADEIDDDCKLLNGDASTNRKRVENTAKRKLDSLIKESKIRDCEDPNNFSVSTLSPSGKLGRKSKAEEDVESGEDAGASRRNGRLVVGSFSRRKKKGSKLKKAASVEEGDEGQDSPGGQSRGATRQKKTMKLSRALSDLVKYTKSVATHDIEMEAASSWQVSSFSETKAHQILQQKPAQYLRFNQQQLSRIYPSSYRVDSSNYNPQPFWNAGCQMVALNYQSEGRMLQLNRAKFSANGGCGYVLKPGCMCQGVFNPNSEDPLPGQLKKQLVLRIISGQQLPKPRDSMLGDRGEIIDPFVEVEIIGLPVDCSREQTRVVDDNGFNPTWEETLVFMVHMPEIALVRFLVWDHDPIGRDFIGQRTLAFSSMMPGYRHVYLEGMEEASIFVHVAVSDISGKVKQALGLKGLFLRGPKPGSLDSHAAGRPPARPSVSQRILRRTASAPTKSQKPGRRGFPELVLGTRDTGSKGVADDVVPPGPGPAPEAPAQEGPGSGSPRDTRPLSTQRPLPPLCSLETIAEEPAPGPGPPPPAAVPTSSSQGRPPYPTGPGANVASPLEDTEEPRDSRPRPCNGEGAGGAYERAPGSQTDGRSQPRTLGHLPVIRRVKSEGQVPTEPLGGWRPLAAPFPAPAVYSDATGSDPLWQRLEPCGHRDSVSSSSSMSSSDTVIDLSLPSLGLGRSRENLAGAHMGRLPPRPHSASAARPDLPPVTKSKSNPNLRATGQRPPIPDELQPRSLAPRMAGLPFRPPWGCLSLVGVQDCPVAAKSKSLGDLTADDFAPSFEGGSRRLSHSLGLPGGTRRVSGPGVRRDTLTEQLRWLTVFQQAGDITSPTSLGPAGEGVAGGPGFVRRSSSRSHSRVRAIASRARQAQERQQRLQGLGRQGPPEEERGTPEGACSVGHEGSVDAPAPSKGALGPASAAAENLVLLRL
UniProt O75607: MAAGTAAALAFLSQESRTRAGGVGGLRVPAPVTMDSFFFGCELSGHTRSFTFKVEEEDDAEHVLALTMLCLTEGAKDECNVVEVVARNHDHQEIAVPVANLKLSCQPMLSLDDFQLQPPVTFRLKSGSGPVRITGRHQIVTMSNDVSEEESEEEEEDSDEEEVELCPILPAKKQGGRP

Compound: CCc1cnccc1C(=O)Nc1cc2c(cc1F)NC(=O)CC2
Experiment: melting temperature shift (DMSO Tm minus MBE1-treated Tm) in cellular thermal proteome profiling; higher = less thermal stabilization by MBE1 (negative = stabilized by MBE1)
Conditions: A375

Row | Target | melting temperature shift (MBE1 concentration: 100 nM) | melting temperature shift (MBE1 concentration: 1 uM)
1 | ROCK2 (UniProt O75116) | 0.354 °C | -0.165 °C
2 | CNOT3 (UniProt O75175) | 1.35 °C | 0.379 °C
3 | UniProt O43502 | -0.64 °C | -0.0183 °C
4 | UniProt O43741 | -1.18 °C | -1.09 °C
5 | SCO1 (UniProt O75880) | – | 8.34 °C
6 | DPM1 (UniProt O60762) | -1.06 °C | -1.19 °C
7 | PHACTR2 (UniProt O75167) | -0.323 °C | 0.409 °C
8 | ENSA (UniProt O43768) | – | -7.38 °C
9 | ERAL1 (UniProt O75616) | -0.538 °C | -0.333 °C
10 | NUDT21 (UniProt O43809) | -1.02 °C | 0.604 °C
11 | GTPBP6 (UniProt O43824) | -0.953 °C | 0.916 °C
12 | DNPH1 (UniProt O43598) | -6.51 °C | -3.77 °C
13 | EIF3G (UniProt O75821) | 0.605 °C | 0.434 °C
14 | UniProt O60347 | – | -1.43 °C
15 | RAD1 (UniProt O60671) | 0.0122 °C | -0.433 °C
16 | COQ9 (UniProt O75208) | -2.49 °C | 0.397 °C
17 | UniProt O60507 | 0.778 °C | 0.177 °C
18 | KATNA1 (UniProt O75449) | 1.29 °C | -0.0305 °C
19 | ANKRD17 (UniProt O75179) | -1.05 °C | -0.0941 °C
20 | UniProt O60637 | – | -3.02 °C
21 | MAST3 (UniProt O60307) | 0.262 °C | -0.496 °C
22 | UniProt O43791 | – | 1.13 °C
23 | SH3BGRL (UniProt O75368) | -0.161 °C | 0.148 °C
24 | AKAP10 (UniProt O43572) | -0.236 °C | -0.6 °C

Row | Target | melting temperature shift (MBE1 concentration: 100 nM) | melting temperature shift (MBE1 concentration: 1 uM)
25 | UniProt O60583 | -2.54 °C | -0.978 °C
26 | NDUFS7 (UniProt O75251) | -0.577 °C | 0.324 °C
27 | ATG13 (UniProt O75143) | 0.727 °C | 0.183 °C
28 | RP2 (UniProt O75695) | 0.189 °C | 0.238 °C
29 | KLF4 (UniProt O43474) | -1.97 °C | –
30 | CALU (UniProt O43852) | – | -3.65 °C
31 | STX6 (UniProt O43752) | -1.12 °C | -0.704 °C
32 | WBP4 (UniProt O75554) | – | 17.2 °C
33 | EXOC3 (UniProt O60645) | -0.4 °C | -0.103 °C
34 | DNAJB6 (UniProt O75190) | -1.57 °C | -1.22 °C
35 | RRP9 (UniProt O43818) | -0.801 °C | 0 °C
36 | HIP1R (UniProt O75146) | 3.3 °C | 2.09 °C
37 | UniProt O60551 | -1.63 °C | 0.208 °C
38 | NEMF (UniProt O60524) | 0.488 °C | 0.134 °C
39 | NBN (UniProt O60934) | -0.593 °C | -0.353 °C
40 | UniProt O43542 | 3 °C | 0.653 °C
41 | DNAJA2 (UniProt O60884) | -1.14 °C | 0.449 °C
42 | TRAPPC3 (UniProt O43617) | 0.0134 °C | -1.17 °C
43 | AP1G1 (UniProt O43747) | 0.513 °C | -0.153 °C
44 | KDM1A (UniProt O60341) | -1.23 °C | -0.537 °C
45 | HTRA2 (UniProt O43464) | -0.194 °C | 0.574 °C
46 | UniProt O75629 | -0.932 °C | 1.36 °C
47 | TBL1X (UniProt O60907) | 1.65 °C | -2.23 °C
48 | PFDN1 (UniProt O60925) | -0.378 °C | -4.03 °C

Row | Target | melting temperature shift (MBE1 concentration: 100 nM) | melting temperature shift (MBE1 concentration: 1 uM)
49 | PALM (UniProt O75781) | -2.52 °C | 0.434 °C
50 | VPS4B (UniProt O75351) | 0.537 °C | -0.366 °C
51 | CHMP2A (UniProt O43633) | -0.757 °C | 0.189 °C
52 | ATP9A (UniProt O75110) | -1.14 °C | -2.3 °C
53 | EMC8 (UniProt O43402) | -1.07 °C | -0.322 °C
54 | NDUFS3 (UniProt O75489) | -0.791 °C | 0.0794 °C
55 | WBSCR22 (UniProt O43709) | -0.671 °C | 0.86 °C
56 | LRCH4 (UniProt O75427) | -0.165 °C | 0.141 °C
57 | MTX2 (UniProt O75431) | -0.952 °C | 0 °C
58 | PRPF40A (UniProt O75400) | -0.955 °C | -0.223 °C
59 | EED (UniProt O75530) | -2.73 °C | -3.8 °C
60 | ERLIN1 (UniProt O75477) | -0.22 °C | 0.464 °C
61 | UniProt O43639 | 0.16 °C | -0.0423 °C
62 | CPNE3 (UniProt O75131) | 0.336 °C | 0.324 °C
63 | OPA1 (UniProt O60313) | -0.375 °C | 0.342 °C
64 | SPAG9 (UniProt O60271) | 0.861 °C | 0.177 °C
65 | UniProt O75145 | -2.95 °C | 15.8 °C
66 | UniProt O60318 | -0.455 °C | -0.25 °C
67 | ATP6V1G1 (UniProt O75348) | -3.64 °C | -5.55 °C
68 | NCOR1 (UniProt O75376) | -1.36 °C | -0.993 °C
69 | AKAP8 (UniProt O43823) | -1.79 °C | -1.13 °C
70 | UniProt O43829 | -1.05 °C | 3.89 °C
71 | UniProt O43715 | 0.235 °C | -5.01 °C
72 | EIF5B (UniProt O60841) | -0.116 °C | 0.434 °C

As entered above:
AKAP8 (UniProt O43823) – melting temperature shift (MBE1 concentration: 100 nM): -1.79 °C
UniProt O60347 – melting temperature shift (MBE1 concentration: 1 uM): -1.43 °C
ERAL1 (UniProt O75616) – melting temperature shift (MBE1 concentration: 100 nM): -0.538 °C
KDM1A (UniProt O60341) – melting temperature shift (MBE1 concentration: 100 nM): -1.23 °C
EIF5B (UniProt O60841) – melting temperature shift (MBE1 concentration: 100 nM): -0.116 °C

(cont.)

Row | Target | melting temperature shift (MBE1 concentration: 100 nM) | melting temperature shift (MBE1 concentration: 1 uM)
73 | BUB1B (UniProt O60566) | -0.0988 °C | -0.372 °C
74 | BANF1 (UniProt O75531) | -0.879 °C | 0.262 °C
75 | UniProt O60879 | -0.622 °C | -0.565 °C
76 | NDUFB3 (UniProt O43676) | -3.93 °C | -3.97 °C
77 | SYNJ1 (UniProt O43426) | 0.824 °C | 0.195 °C
78 | UniProt O60725 | -0.348 °C | 0.672 °C
79 | KIF1C (UniProt O43896) | 0.226 °C | -0.434 °C
80 | CDC123 (UniProt O75794) | 0.867 °C | 0.69 °C
81 | LANCL1 (UniProt O43813) | -0.908 °C | -0.532 °C
82 | UniProt O75354 | -2.37 °C | -1.98 °C
83 | XPOT (UniProt O43592) | -0.0244 °C | -0.397 °C
84 | CLN5 (UniProt O75503) | 0.127 °C | 0.503 °C
85 | PRPSAP2 (UniProt O60256) | -1.04 °C | 0.305 °C
86 | SLC25A12 (UniProt O75746) | -0.644 °C | -1.84 °C
87 | UniProt O75487 | 0.055 °C | 6 °C
88 | RAD21 (UniProt O60216) | -0.526 °C | -0.208 °C
89 | UniProt O60315 | -0.621 °C | 0.179 °C
90 | SNRNP200 (UniProt O75643) | 0.855 °C | 0.055 °C
91 | UniProt O43909 | -0.215 °C | -0.342 °C
92 | UniProt O75575 | -0.659 °C | 0.177 °C
93 | SCO2 (UniProt O43819) | -0.0855 °C | 5 °C
94 | UniProt O43529 | -1.88 °C | 4.51 °C
95 | IDH3B (UniProt O43837) | -0.436 °C | 0.52 °C
96 | TRIM3 (UniProt O75382) | -1.21 °C | -0.795 °C

Row | Target | melting temperature shift (MBE1 concentration: 100 nM) | melting temperature shift (MBE1 concentration: 1 uM)
97 | TOM1L1 (UniProt O75674) | -0.309 °C | 0.226 °C
98 | EIF4E2 (UniProt O60573) | -0.103 °C | -0.822 °C
99 | PLRG1 (UniProt O43660) | 0.47 °C | -1.18 °C
100 | BUB3 (UniProt O43684) | -1.46 °C | 0.121 °C
101 | UniProt O75038 | 0 °C | 3.27 °C
102 | RIPK2 (UniProt O43353) | -1.61 °C | 0.623 °C
103 | ZFC3H1 (UniProt O60293) | -0.801 °C | 0.0513 °C
104 | H2AFY (UniProt O75367) | -1.47 °C | 3.55 °C
105 | GSTZ1 (UniProt O43708) | -0.0733 °C | 0.397 °C
106 | KDM4A (UniProt O75164) | -4.65 °C | -5.67 °C
107 | ATP6AP2 (UniProt O75787) | -0.563 °C | 0.305 °C
108 | ZNF207 (UniProt O43670) | -2.05 °C | -3.66 °C
109 | ORC4 (UniProt O43929) | -0.621 °C | -0.36 °C
110 | DENR (UniProt O43583) | -2.73 °C | -1.92 °C
111 | RPP40 (UniProt O75818) | -2.3 °C | -0.733 °C
112 | DKC1 (UniProt O60832) | 0.165 °C | 0.562 °C
113 | GGCT (UniProt O75223) | -0.696 °C | -0.183 °C
114 | TIPRL (UniProt O75663) | 1.23 °C | 0.574 °C
115 | UniProt O60262 | 0.769 °C | -0.208 °C
116 | RGS10 (UniProt O43665) | -0.955 °C | 0.525 °C
117 | NPM3 (UniProt O75607) | -3.05 °C | -0.6 °C
118 | WDR1 (UniProt O75083) | -0.396 °C | -0.241 °C
119 | IGSF3 (UniProt O75054) | -1.94 °C | 0.724 °C
120 | UniProt O60237 | -1.22 °C | -1.72 °C
